In US20150202313A1, “Macromolecular Prodrugs for Hard Tissue and Methods of Use Thereof” (New York Society for The Ruptured and Crippled Maintaining …, priority 2012, published 2015):
For at least one compound, name, drawing or mass did not settle the structure.

Assays:
[1] = test system: mouse preosteoblast (pOBs, MC3T3-E1 Subclone 4); assay: Differentiation of preosteoblasts (Alkaline Phosphatase activity); format: cell-based
[2] = test system: mouse preosteoblast (pOBs, MC3T3-E1 Subclone 4); assay: Proliferation of preosteoblasts (MTT assay); format: cell-based

## CCC(C)(C)C(=O)O[C@H]1C[C@@H](C)C=C2C=C[C@H](C)[C@H](CC[C@@H]3C[C@@H](O)CC(=O)O3)[C@H]21 [SIM, Simvastatin]
[1]
  differentiation (Alkaline Phosphatase or ALP activity) of pOBs into osteoblasts: stimulate
[2]
  proliferation (MTT assay) of pOBs: stimulate
